Results taken from patent US11759509B2, “WT1 antigen peptide conjugate vaccine” (Sumitomo Pharma Co., Ltd., priority 2013, dated 2023).
Not every detail of the peptide structures is certain; ends, links or a residue may be inferred. Some entries repeat one wording, which the source may state once for all of them. For some of these results: At least one structure is not confirmed: it was looked up by name or label, or the drawing left a doubt. Positions of bridges follow the written chain, without caps; N, C: chain ends. Residues, ends and D or L forms follow the SMILES beside them. Chains are numbered I, II in the order given. No end group written: not given here.

The chains behind the UniProt entries cited, without tags or fusion partners. Where a name states a change or a piece, a line headed by the entry shows the natural chain unless it says otherwise.
UniProt Q9NZ08: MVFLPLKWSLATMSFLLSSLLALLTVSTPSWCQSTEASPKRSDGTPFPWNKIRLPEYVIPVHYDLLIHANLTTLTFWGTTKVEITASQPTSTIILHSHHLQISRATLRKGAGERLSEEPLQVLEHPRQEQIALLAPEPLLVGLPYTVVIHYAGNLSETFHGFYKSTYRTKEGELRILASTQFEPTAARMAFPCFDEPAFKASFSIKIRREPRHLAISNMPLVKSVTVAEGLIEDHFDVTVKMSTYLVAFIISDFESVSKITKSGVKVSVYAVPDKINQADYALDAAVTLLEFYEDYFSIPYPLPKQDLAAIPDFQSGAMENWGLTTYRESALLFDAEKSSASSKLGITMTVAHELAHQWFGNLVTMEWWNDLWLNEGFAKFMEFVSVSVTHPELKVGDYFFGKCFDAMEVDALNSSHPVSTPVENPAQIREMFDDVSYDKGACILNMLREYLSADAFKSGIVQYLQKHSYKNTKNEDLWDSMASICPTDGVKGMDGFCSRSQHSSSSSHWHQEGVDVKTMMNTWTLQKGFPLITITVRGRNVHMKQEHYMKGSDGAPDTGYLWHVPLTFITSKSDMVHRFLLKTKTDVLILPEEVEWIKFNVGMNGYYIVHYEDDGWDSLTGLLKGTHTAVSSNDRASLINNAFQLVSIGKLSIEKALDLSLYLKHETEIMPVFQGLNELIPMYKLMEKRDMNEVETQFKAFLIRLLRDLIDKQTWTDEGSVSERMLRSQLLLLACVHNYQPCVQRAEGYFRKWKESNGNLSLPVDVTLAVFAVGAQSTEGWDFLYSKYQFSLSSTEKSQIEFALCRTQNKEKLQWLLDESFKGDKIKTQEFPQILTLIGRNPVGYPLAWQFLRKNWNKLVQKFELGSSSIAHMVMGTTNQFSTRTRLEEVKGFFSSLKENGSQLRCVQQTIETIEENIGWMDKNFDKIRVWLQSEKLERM

Key:
ERAP1 = ERAP1 (Homo sapiens, UniProt Q9NZ08); assay: Time-course changes of trimming of N-terminal amino acid by ERAP1; assay type: biochemical; settings: conclusion from trimming results
Experimental: Time-Course Changes of Trimming of N-Terminal Amino Acid by ERAP1
30 μl of ERAP1 (2.0 mg/ml) in PBS buffer solution was added to 258 μl of Tris·HCl buffer. DMSO solution (12.0 μl) of 10 mM each peptide was added to the aforementioned ERAP1 solution, and the mixture was blended well and stood at room temperature. 1.0, 2.0, 4.0, 8.0 hr later, 50 μl of a sample was added to 150 μl of MeOH to terminate the reaction, 25 μl was injected into UFLC (analysis conditions shown below), and AUC of the object peptide was determined. […] Concentration of SOLUTION B was raised from 1.0% to 70% from 0.0 min to 5.0 min • 2. Concentration of SOLUTION B was raised from 1.0% to 50% from 0.0 min to 5.0 min • object peptide: […]

[1] = system: HLA-A0201 transgenic mouse; assay: In vivo CTL induction test, IFNγ ELISPOT assay using HLA-A0201 transgenic mouse; settings: Experimental Example 9; for induction of cells reactive with the helper peptide shown by SEQ ID NO: 24: FIG. 12; for induction of CTL specific to the peptide shown by SEQ ID NO: 5: formula (9) 590 μg/site, SEQ ID NO: 5 150 μg/site, 2 sites, IFA
[2] = Stability test of conjugate and cocktail vaccine in aqueous solution; assay type: physicochemical; settings: for content percentage of peptide in cocktail vaccine: mixed solution of SEQ ID NO: 2 and SEQ ID NO: 24 in water for injection, room temperature; for content percentage: peptide in cocktail vaccine (SEQ ID NO: 2 + SEQ ID NO: 24) in water for injection, under shading at room temperature, start = 100%

Molecule	cleavage of Cys on the extended N-terminal by ERAP-1 (ERAP1)	induction of cells reactive with the helper peptide shown by SEQ ID NO: 24 [1]	induction of CTL specific to the peptide shown by SEQ ID NO: 5 ([1]; FIG. 11)	further results
CSLGEQQYSV [Example 5]	selectively cleaved			
CSCC[C@H](NC(=O)[C@H](CCC(N)=O)NC(=O)[C@H](CC(C)C)NC(=O)[C@H](Cc1c[nH]cn1)NC(=O)[C@H](CO)NC(=O)[C@H](CC(C)C)NC(=O)[C@H](CCCCN)NC(=O)[C@H](Cc1ccccc1)NC(=O)[C@H](Cc1ccc(O)cc1)NC(=O)[C@H](CCCNC(=N)N)NC(=O)[C@H](CCCCN)NC(=O)[C@H](CC(N)=O)NC(=O)[C@@H](N)CSSC[C@H](N)C(=O)N[C@@H](C)C(=O)N[C@@H](CC(C)C)C(=O)N[C@@H](CC(C)C)C(=O)N1CCC[C@H]1C(=O)N[C@@H](C)C(=O)N[C@H](C(=O)N1CCC[C@H]1C(=O)N[C@@H](CO)C(=O)N[C@@H](CC(C)C)C(=O)O)C(C)C)C(=O)N[C@@H](Cc1c[nH]cn1)C(=O)N[C@@H](CO)C(=O)N[C@@H](CCCNC(=N)N)C(=O)N[C@@H](CCCCN)C(=O)N[C@@H](Cc1c[nH]cn1)C(=O)N[C@H](C(=O)NCC(=O)O)[C@@H](C)O [formula (9)] (I: H-CNKRYFKLSHLQMHSRKHTG-OH / II: H-CALLPAVPSL-OH; disulfide I:1-II:1)		resulted in the induction of cells reactive	resulted in the induction of CTL	number of IFNγ-producing cells specific to SEQ ID NO: 5, compared with administration of the peptide shown by SEQ ID NO: 5 ([1]; equal mole number of SEQ ID NO: 5, FIG. 11): higher
CRVPGVAPTL [Example 4]	selectively cleaved			
CNKRYFKLSHLQMHSRKHTG [SEQ ID NO: 24]				content percentage of peptide in cocktail vaccine ([2]; 2 weeks later): 6%; content percentage of peptide in cocktail vaccine ([2]; 1 day elapse): 65%; content percentage ([2]; elapsed time 1 week): 9%; content percentage ([2]; elapsed time 2 weeks): 6%; content percentage ([2]; elapsed time 1 day): 65%
ALLPAVPSL [SEQ ID NO: 5, reference compound]		did not induce cells reactive	resulted in the induction of CTL	
CALLPAVPSL [Example 3]	selectively cleaved			
